Tested on: human erythrocytes (RBC's)
Assay: Hemolysis assay, 50% lysis of RBC's
Format: cell-based
Conditions: Table 2
Method: The biological activities of these peptides were measured using human erythrocytes and E. coli as models for mammalian and bacterial cells, respectively. Hemolysis was monitored in 10 mM Tris, 150 mM NaCl, pH 7.0, while the bacterial assay was conducted in minimal media M9 (Table 1); both of these solutions are sufficiently transparent to allow CD and ultracentrifugation measurements (supplementary material). Under the assay conditions, the peptides gave CD spectra similar to those in Tris buffer, with the exception of H-(β^3-HLeu-β^3-HLys-β^3-HLeu)n-OH, n=5 and 6.
∇in M9 medium (data from Hamuro et al., ref. 5) # In M9 medium.+Hemolysis experiments were performed by incubating a 0.25% suspension of human RBc's in 10 mM Tris buffer containing […] at pH 7.0 with varying amounts of peptide. The hemolytic dose required to lyse 50% of the RBC's is reported as the HD50.
Hemolysis experiments were carried out by incubating 0.25% suspension of human erythrocytes (RBC's) with peptides of different concentrations in 150 mM sodium choloride, 10 mM Tris buffer, pH 7.0. The sample was prepared by combining 400 μL of the RBC suspension and […] of the peptide solution. After incubated the sample at 37— C. for 1 hour, the sample was centrifuged at 14,000 rpm for 5 min, and the OD414 of the supernatant was measured. Mellitin (50 μM) was used to get 100% hemolysis. […]

Structure (SMILES) | Selectivity HD50/IC50
CC(C)C[C@@H](CC(=O)O)NC(=O)C[C@H](CCCCN)NC(=O)C[C@@H](NC(=O)C[C@H](CC(C)C)NC(=O)C[C@H](CCCCN)NC(=O)C[C@@H](NC(=O)C[C@H](CC(C)C)NC(=O)C[C@H](CCCCN)NC(=O)C[C@@H](N)C(C)C)C(C)C)C(C)C [H-(β^3-HVal-β^3-HLys-β^3-HLeu)3-OH, H-(b^3-HVal-b^3-HLys-b^3-HLeu)3-OH] | 2.1
CC(C)C[C@@H](CC(=O)O)NC(=O)C[C@H](CCCCN)NC(=O)C[C@@H](NC(=O)C[C@H](CC(C)C)NC(=O)C[C@H](CCCCN)NC(=O)C[C@@H](NC(=O)C[C@H](CC(C)C)NC(=O)C[C@H](CCCCN)NC(=O)C[C@@H](NC(=O)C[C@H](CC(C)C)NC(=O)C[C@H](CCCCN)NC(=O)C[C@@H](N)C(C)C)C(C)C)C(C)C)C(C)C [H-(β^3-HVal-β^3-HLys-β^3-HLeu)4-OH, H-(b^3-HVal-b^3-HLys-b^3-HLeu)4-OH] | 2.0
